Data as given in PubChem BioAssay AID1159578 (Peter MacCallum Cancer Centre, 2015).

Purpose: 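Genome-wide hunt for genes controlling movement of lymphatic endothelial cells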 (primary screen)
System: human lymphatic endothelial cells
Reagent: siRNA pool against human genes, 40 nM
Timing: 48 h after transfection
Measured: 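Cells stained with dye and imaged after a scratch; covered wound area and nuclei counted, duplicates averaged, migration set against mock wells and turned into a robust z-score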
Reading the numbers: migration robust z-score: higher = faster migration into the scratch; migration relative to mock: higher = more scratch area covered than mock; nuclei per well: higher = more cells in the well
Hit rule: 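Migration changed when robust z exceeds 2 or falls below -2 and mean nuclei number is at least 3300; otherwise not called changed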
Calls: active = migration changed; inactive = no migration change, or too few cells
The deposit covers about 18,000 reagents; shown is a part drawn at random. Of all reagents, about 1,030 (5.7%) are marked active. 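Inactive calls also include pools with fewer than 3300 nuclei, whose migration was not assessed.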 Raw values are not corrected between plates. Reagent sequences are not shown.

| gene knocked down | migration robust z-score | migration class with cell-count check | migration relative to mock | nuclei per well, duplicate mean | outcome |
| --- | --- | --- | --- | --- | --- |
| HASPIN | -1.77 | migration z between -2 and 2; enough cells | 0.46 | 4137 | inactive |
| PCED1A | -0.28 | migration z between -2 and 2; enough cells | 0.81 | 6961 | inactive |
| UBQLNL | 2.12 | migration z above 2; enough cells | 1.43 | 5650 | active |
| EPHA4 | 1.79 | migration z between -2 and 2; enough cells | 1.15 | 6545 | inactive |
| ZZZ3 | -0.8 | migration z between -2 and 2; enough cells | 0.68 | 6078 | inactive |
| ATP5PF | -1.14 | migration z between -2 and 2; enough cells | 0.58 | 5630 | inactive |
| ZNF280C | 0.32 | migration z between -2 and 2; enough cells | 0.97 | 5161 | inactive |
| SDC1 | -1.23 | migration z between -2 and 2; enough cells | 0.56 | 5552 | inactive |
| LMNB2 | 0.38 | migration z between -2 and 2; enough cells | 0.98 | 5916 | inactive |
| NUP62 | -2.05 | under 3300 nuclei; migration not judged | 0.41 | 2724 | inactive |
| OAS3 | 1.29 | migration z between -2 and 2; enough cells | 1.06 | 3549 | inactive |
| SSUH2 | 0.31 | migration z between -2 and 2; enough cells | 0.96 | 5046 | inactive |

Quoted from the entries so far (2 entries):
| gene knocked down | migration robust z-score | migration class with cell-count check | migration relative to mock | nuclei per well, duplicate mean | outcome |
| --- | --- | --- | --- | --- | --- |
| NUP62 | -2.05 | under 3300 nuclei; migration not judged | 0.41 | 2724 | inactive |
| OAS3 | 1.29 | migration z between -2 and 2; enough cells | 1.06 | 3549 | inactive |

Next reagents follow.
| gene knocked down | migration robust z-score | migration class with cell-count check | migration relative to mock | nuclei per well, duplicate mean | outcome |
| --- | --- | --- | --- | --- | --- |
| GLG1 | -0.28 | migration z between -2 and 2; enough cells | 0.82 | 5925 | inactive |
| GARIN1B | 1.03 | migration z between -2 and 2; enough cells | 1.16 | 5705 | inactive |
| TLE1 | -0.05 | migration z between -2 and 2; enough cells | 0.8 | 5065 | inactive |
| DMRT1 | 0.65 | migration z between -2 and 2; enough cells | 0.93 | 6848 | inactive |
| VSNL1 | 0.49 | migration z between -2 and 2; enough cells | 1.01 | 4329 | inactive |
| CD68 | -1.52 | migration z between -2 and 2; enough cells | 0.49 | 4757 | inactive |
| IL5 | 0.13 | migration z between -2 and 2; enough cells | 0.83 | 6554 | inactive |
| NCAPH | 0.68 | migration z between -2 and 2; enough cells | 1.06 | 5222 | inactive |
| VDR | -1.73 | migration z between -2 and 2; enough cells | 0.47 | 5034 | inactive |
| ERCC6L | -0.57 | migration z between -2 and 2; enough cells | 0.74 | 5508 | inactive |
| FOXRED1 | 0.32 | migration z between -2 and 2; enough cells | 0.97 | 7406 | inactive |
